Amino acid sequences for entries named in this document (tags omitted). Residues count along the entry.
UniProt P10243, 1-187: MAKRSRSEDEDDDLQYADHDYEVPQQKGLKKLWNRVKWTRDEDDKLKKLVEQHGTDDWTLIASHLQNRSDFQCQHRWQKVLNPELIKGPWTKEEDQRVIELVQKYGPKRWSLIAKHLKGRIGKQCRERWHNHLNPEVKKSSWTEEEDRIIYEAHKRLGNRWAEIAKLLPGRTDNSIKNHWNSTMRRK
UniProt P10244, 1-183: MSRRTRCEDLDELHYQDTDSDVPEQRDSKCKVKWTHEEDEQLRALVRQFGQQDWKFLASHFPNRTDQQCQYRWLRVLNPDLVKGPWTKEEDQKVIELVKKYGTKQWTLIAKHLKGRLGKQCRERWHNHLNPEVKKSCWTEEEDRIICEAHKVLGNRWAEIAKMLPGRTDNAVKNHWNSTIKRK

In PMC533864:

Experiments:
[1] = biological target: A-Myb NR1R2R3 (Homo sapiens) (UniProt P10243); experiment: EMSA; settings: 20 mM Tris-HCl pH 8.0, 0.1 mM EDTA, 10% glycerol, 0.1 mM DTT, 0.005% Triton X-100, 50 mM NaCl, RNAguard 6-20 U, 20 uL, 25 C, 15 min; recombinant protein; residues 1-187; label: 32P
[2] = biological target: B-Myb NR1R2R3 (UniProt P10244); experiment: EMSA; settings: 20 mM Tris-HCl pH 8.0, 0.1 mM EDTA, 10% glycerol, 0.1 mM DTT, 0.005% Triton X-100, 50 mM NaCl, RNAguard 6-20 U, 20 uL, 25 C, 15 min; recombinant protein; residues 1-183; label: 32P

GCATTATAACGGTTTTTTAGCGC (double strand) [MRE probe (mim-1 promoter)]
binding result [1]: binds | binding result [2]: binds

For at least one entry, the source does not settle the construct or the ends of the probe. At least one verdict was read from the data and is not stated in words by the source.
